Reference: US10550135B2, “Silicon incorporated quinolines with anti-malarial and anti-toxoplasmosis activity” (Council of Scientific & Industrial Research, priority 2016, dated 2020)
Some results were stated once for a whole list of compounds, not compound by compound.

What follows are molecules tested on Plasmodium falciparum (3D7) (assay: Anti-malarial screening, P. falciparum 3D7 growth in human RBC culture, SybrGreen fluorescence). Details: concentration not given.
Type: cell-based
Protocol: • a) Anti-malarial screening: Plasmodium falciparum (3D7; Malaria Research and Reference Reagent Resource Center ID NO: MRA-102) is cultured in the laboratory as per standard protocols [Moll et. al. 2008]. Briefly, P. falciparum is cultured using 2% hematocrit washed RBCs, separated from freshly collected human blood, in RPMI media containing glutamine, sodium bicarbonate and antibiotics. Parasites are routinely synchronized using 5% sorbitol treatment. Anti-malarial screens are carried out in two stages: 1) a primary screen at a fixed concentration of 10 μM to find out % inhibition of growth; and 2) a dose assay for finding out the IC50 of hits identified from the primary screen. In both assays the following steps are followed. 200 μL's of the diluted parasite culture (2% parasitemia and 2% hematocrit; at late ring stage), is added to each well in a 96 well plate pre-seeded with the compound of interest at the required concentration of 10 μM. The master stocks and dilutions of the compounds are prepared in cell culture grade DMSO. NOTE: DMSO only treatment control is done and the results are used for normalizing the data obtained from compound treatment. All compounds are plated in triplicates. Each 96 well plate also includes negative control (compound untreated culture) and positive control (standard anti-malarial treated culture). Standard anti-malarials used are chloroquine, artemisinine and atovaquone, each at 1 μM concentration. After plating, the culture is incubated in standard growth condition for 60 hours, after which the cultures are processed for testing the effect of compounds on parasite growth using SybrGreen staining and fluorescence measurements at 520 nm emission following excitation at 498 nm. Since only the parasites have DNA (as RBCs are devoid of nucleus), the SybrGreen signal is a direct indictor of parasite density in respective samples. Results are used to quantifying relative parasite growth (or conversely % inhibition of growth) in untreated, standard anti-malarial treated and test molecules treated P. falciparum cultures. Compounds showing greater than 80% reduction in parasitemia are selected from this primary screening for carrying out dose response analysis using the respective test molecules from 10 μM to 1 nM dilution series. Data from this experiment is used for the calculation of IC50 values for the respective test molecules. • b) Anti-toxoplasma screening: For screening bioactivity of test molecules against T. gondii, a transgenic line of the parasite expressing the luciferase gene is used. The parental parasite used to generate the TgLuc+ strain is a Type I (RH) virulent strain (ATCC reference 50174D), which can also be used for in vivo studies in mice, if needed. The tachyzoite stage of the parasites are routinely cultured in the laboratory using standard protocols [Roos et al., 1994. In brief, a confluent monolayer of Human Foreskin Fibroblast (HFF; ATCC reference SCRS-1041) cells in culture are used as the host cells for infection with tachyzoite stage T. gondii. The culture media used to grow parasites is standard complete DMEM (Gibco BRL, USA) containing glucose (5.5 mM), glutamine (2 mM), Hepes (25 mM) and 1% dialyzed bovine fetal calf serum (Gibco BRL, USA). […] After 2 days of incubation and growth in a 37° C. incubator maintaining 5% CO2, the 96 well plates are processed for luminescence measurements using the reagents in the luciferase assay kit (Promega, USA). […]
With `CN1CCN(CCNC(=O)c2cc(-c3ccc(CN4CC[Si](C)(C)CC4)cc3)nc3ccc(F)cc23)CC1` [NDS 101075, 2-(4-((4,4-dimethyl-1,4-azasilinan-1-yl)methyl)phenyl)-6-fluoro-N-(2-(4-methylpiperazin-1-yl)ethyl)quinoline-4-carboxamide] the “biological activity against Plasmodium falciparum” value (shortened to “biological activity”) was “more than 90%”.
In the case of `C[Si]1(C)CCN(Cc2ccc(-c3cc(C(=O)NCCN4CCOCC4)c4cc(F)ccc4n3)cc2)CC1` [NDS 101008, 2-(4-((4,4-dimethyl-1,4-azasilinan-1-yl)methyl)phenyl)-6-fluoro-N-(2-morpholinoethyl)quinoline-4-carboxamide], the “biological activity” value was “more than 90%”.
With `C[Si]1(C)CCN(Cc2ccc(-c3cc(C(=O)NCCN4CCSCC4)c4cc(F)ccc4n3)cc2)CC1` [NDS 101077, 2-(4-((4,4-dimethyl-1,4-azasilinan-1-yl)methyl)phenyl)-6-fluoro-N-(2-thiomorpholinoethyl)quinoline-4-carboxamide] the “biological activity” value was “more than 90%”.
`C[Si]1(C)CCN(CCNC(=O)c2cc(-c3ccc(CN4CCOCC4)cc3)nc3ccc(F)cc23)CC1` [NDS 100951, N-(2-(4,4-dimethyl-1,4-azasilinan-1-yl)ethyl)-6-fluoro-2-(4-(morpholinomethyl)phenyl)quinoline-4-carboxamide] was tested, and the “biological activity” value was “more than 90%”.
`C[Si]1(C)CCN(Cc2ccc(-c3cc(C(=O)Nc4ccccn4)c4cc(F)ccc4n3)cc2)CC1` [NDS 101009, 2-(4-((4,4-dimethyl-1,4-azasilinan-1-yl)methyl)phenyl)-6-fluoro-N-(pyridin-2-yl)quinoline-4-carboxamide] was tested, and the “biological activity” value was “more than 90%”.
